Out of some 94,000 compounds screened, about 280 (0.3%) were called active. This list was built around the results that the source calls inconclusive (neither active nor inactive); the mix of calls is not that of the screen.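 Rule for the calls: active = activation above 40%, about the mean plus 3 SD, also judged a hit on visual image review; inconclusive = activation above 40% but not a hit on visual review; inactive = activation not above 40% and no visual hit.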
Experiment: enhancers of NFkB p65 translocation in HUVEC – imaging, IL-1B stimulus, high-content imaging, primary screen (AID 819);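 note: percent activation is computed from the nuclear over cytoplasmic p65 intensity ratio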
Details: HUVEC IL-1B NFkB p65 nuclear translocation imaging; at 2 µM; active compounds read high

| SMILES | activation |
| --- | --- |
| CSc1ncccc1C(=O)NCc1ccc(C)cc1 | inconclusive: 42.5% |
| COc1cccc(NC(=O)Nc2cc(C)ccc2F)c1 | inconclusive: 40.2% |
| COc1ccc(C2CC(c3cccs3)=Nc3ccccc3S2)cc1 (stereo not drawn) | active: 42.9% |
| O=S(=O)(c1ccc(-n2cnnn2)cc1)N(C1CCCCC1)C1CCCCC1 | inactive: -3.29% |
| O=C(COC(=O)c1ccccc1F)c1ccc(-n2nncc2-c2ccco2)cc1 | active: 41.6% |
| CCn1c(=O)c2c(nc(SCc3ccccn3)n2C)n(C)c1=O | inconclusive: 70.3% |
| COc1cccc(C(=O)Nc2ccccc2N2CCOCC2)c1 | inconclusive: 42.1% |
| COC(=O)Cn1cc(C(=O)OC)c2ccccc21 | inactive: 6.15% |
| CN(C)c1cccc(C(=O)OCC(=O)NCC2CCCO2)c1 (stereo not drawn) | inconclusive: 51.1% |
| Cc1cccc(NC(=S)NC2CC3CCC(C2)N3Cc2ccco2)c1C (stereo not drawn) | inconclusive: 66.6% |
| CCOc1ccc(OCc2ccc(C(=O)N3N=C(C(F)F)CC3(O)C(F)F)o2)cc1 (stereo not drawn) | active: 44.8% |
| Fc1ccc(Cn2ccc(-c3cnc(-c4ccccc4)s3)n2)cc1 | inconclusive: 53% |
| O=C(Nc1ccc(Cn2cccn2)cc1)c1ccc(COc2cccc(Br)c2)cc1 | active: 57% |
| O=C(COc1ccc(Br)cc1)OCc1nnc(-c2ccccc2)o1 | inconclusive: 76.4% |
| CC1(C)Cc2c(c(N3CCCC3)nc3sc4c(N5CCN(CCO)CC5)ncnc4c23)CO1 | inconclusive: 56.7% |
| CC(C)C1NC(=S)N(Cc2ccccc2)C1=O (stereo not drawn) | inconclusive: 61% |
| COc1ccccc1/C=C/C1(C(=O)NC2CCCC2)CC(=O)N1c1ccc(C)cc1 (stereo not drawn) | inconclusive: 53.3% |
| COc1ccc2[nH]c(=O)c(CN(C(=O)c3cccnc3)c3ccccc3)cc2c1 | active: 66.9% |
| COc1ccc(-c2noc(C3CCCN(C(=O)CCc4ccccc4)C3)n2)cc1 (stereo not drawn) | inconclusive: 44.1% |
| CC(=O)c1ccc(N2C(=O)C3C(C2=O)C(C(=O)c2ccc(Cl)cc2)N2CCCC32)cc1 (stereo not drawn) | inconclusive: 72.5% |
| Cc1cc2c(cc1C)N(CC(=O)N1CCCC1)C(=O)CC(c1ccccc1)=N2 | inactive: -2.71% |
| Cc1nc2ccccc2c(=O)n1/N=C/c1cn(-c2ccccc2)nc1-c1cccs1 | inactive: -10.4% |
| OCCN=C(c1ccccc1)C12CN3CN(CN(C3)C1)C2 | inconclusive: 41% |

| SMILES | activation |
| --- | --- |
| CCOc1ccccc1/C=c1\sc2nc(-c3ccco3)nn2c1=O | active: 53.9% |
| C=CCC(C#Cc1ccccc1)[N+](C)(C)CC=C (stereo not drawn) | inactive: 7.34% |
| CS(=O)(=O)Nc1nnc(Cc2ccccc2)s1 | inconclusive: 43.5% |
| O=C(O)c1ccc2c(c1)ncn2C1CCCCCC1 | inconclusive: 60.8% |
| COC(=O)C1=C(C)N(c2ccc(Cl)c(Cl)c2)C(=O)C1 | active: 55.4% |
| COc1ccc(-c2cn3ccc4ccccc4c3n2)cc1 | active: 40.4% |
| COc1cccc(-c2cc(C(=O)Nc3c(C)nn(Cc4ccccc4C)c3C)no2)c1 | inactive: 38.5% |
| O=C(NCc1ccccc1)Oc1cccc(Cl)c1 | active: 42.3% |
| O=c1c(-c2ccccc2)c(O)nc2ccccn12 | inconclusive: 62.6% |
| Cc1cccc(Cn2c(=O)c3c(nc4n3CCCN4Cc3ccccc3)n(C)c2=O)c1 | inconclusive: 101% |
| COc1ccc(N2CCN(C(=O)CCCn3c(=S)[nH]c4cc5c(cc4c3=O)OCO5)CC2)cc1 | inconclusive: 50.2% |
| N#CCCN/N=C(/Cc1nc2ccccc2[nH]1)c1ccc(Cl)cc1 | inconclusive: 49.8% |
| O=C(NO)c1ccc(C(=O)N(C2CCCCC2)C2CCCCC2)cc1 | active: 43.5% |
| CCOC(=O)CSc1nc(-c2ccc3c(c2)OCO3)ccc1C#N | inconclusive: 40.1% |
| O=C(Cc1ccccc1)Nc1nnc(-c2ccco2)s1 | inconclusive: 58.7% |
| COC(=O)c1c(NC(NC(=O)C(C)(C)C)C(Cl)(Cl)Cl)sc2c1CCC2 (stereo not drawn) | inconclusive: 45.7% |
| CCCOC(=O)c1cc2ccccc2oc1=O | inconclusive: 136% |
| CC(C)OCCCNC(=O)C1CC(=O)N(C2CCCCCCC2)C1 (stereo not drawn) | inconclusive: 42% |
| CCCCc1oc2c(c(=O)c1C)C(=O)CC(c1ccccc1)C2 (stereo not drawn) | inconclusive: 45.4% |
| Cc1cc(C)n(-c2nc3ccccc3[nH]c2=O)n1 | inactive: 3.15% |
| COc1ccccc1Cn1nnc2c(=O)[nH]c(C3CCN(C(=O)c4ccc(F)cc4)CC3)nc21 | inconclusive: 52.4% |
| Cc1ccc(CCN2CC(C(=O)NCCCN3CCCCCC3)CC2=O)cc1 (stereo not drawn) | inactive: 6.64% |
| C=CCn1c(SCC(=O)NC2CCCCC2)nnc1C(C)NC(=O)c1cccs1 (stereo not drawn) | inactive: 13% |

| SMILES | activation |
| --- | --- |
| CCc1ccc(-n2c(SCc3c(C)noc3C)nnc2-c2ccncc2)cc1 | active: 66.5% |
| CCCCC(CCC(=O)Nc1ccccc1C(=O)OCC)C(=O)O (stereo not drawn) | inactive: 11.4% |
| COc1ccc(C2=NOC(C(=O)NCCCN3CCOCC3)C2)cc1 (stereo not drawn) | active: 46.8% |
| CCc1ccc(C2CC(c3ccccc3)n3ncnc3N2)cc1 (stereo not drawn) | active: 41.7% |
| CCCC(=O)Nc1ccc2c(c1)nc1n2CCOC1 | inconclusive: 44.5% |
| Cc1nc(CNS(=O)(=O)c2ccc3c(c2)OCCO3)cs1 | active: 59.4% |
| COc1ccc(-c2nnc(SCC(=O)c3[nH]c(C)c(C(C)=O)c3C)o2)cc1 | inconclusive: 75.2% |
| CCCOn1c(-n2nc(C)cc2C)nc2ccccc2c1=O | active: 121% |
| CNC(=S)N1N=C(c2ccc(OC)cc2)CC1c1ccc(N(C)C)cc1 (stereo not drawn) | inactive: -5.43% |
| Cc1noc(-c2ccccc2OC(=O)c2ccccc2)n1 | active: 53.4% |
| O=C(c1ccncc1)c1ccc(NS(=O)(=O)c2ccc(Br)s2)cc1 | inconclusive: 58.3% |
| COC(=O)c1cc(=O)nc2sccn12 | active: 42.3% |
| COc1ccc(-n2nnnc2SCC(=O)Nc2nnc(C)s2)cc1OC | inconclusive: 76.4% |
| O=C(Nc1ccc2nc(-c3ccccc3)oc2c1)c1ccco1 | active: 40.3% |
| CC(C)N(Cc1nc(-c2ccccc2)no1)C(=O)CSc1ccccc1 | inconclusive: 45.5% |
| CCc1nnc(NC(=O)CN2CCN(c3ccc(Cl)cc3)CC2)s1 | inconclusive: 45.2% |
| Cc1ccc(NCc2nnc(SCc3ccc(C#N)cc3)n2Cc2ccco2)c(C)c1 | inactive: -2.22% |
| COc1ccc2c(c1)C(C)CC(C)(C)N2C(=O)CSc1nc2ccccc2s1 (stereo not drawn) | inconclusive: 46.2% |
| CC(C)Cn1c(N)c(C(=O)NCC2CCCO2)c2nc3ccccc3nc21 (stereo not drawn) | inconclusive: 44.5% |
| O=c1c2ccccc2sn1-c1cc(S(=O)(=O)N2CCOCC2)ccc1N1CCCC1 | inconclusive: 41% |
| COc1ccc(-n2ccc(=O)c3c2CCCC3=O)cc1 | inconclusive: 42.5% |
| CCC(=O)NC(c1ccccc1OC)c1ccc2cccnc2c1O (stereo not drawn) | inconclusive: 45.8% |

Some of these compounds in order of heavy-atom count, low to high:

| SMILES | activation |
| --- | --- |
| COC(=O)c1cc(=O)nc2sccn12 | active: 42.3% |
| CC(C)Cn1c(N)c(C(=O)NCC2CCCO2)c2nc3ccccc3nc21 (stereo not drawn) | inconclusive: 44.5% |
| CCc1ccc(-n2c(SCc3c(C)noc3C)nnc2-c2ccncc2)cc1 | active: 66.5% |

Source: PubChem BioAssay AID819 (Columbia University Molecular Screening Center, 2007)
